From publication PMC7819943, “Rice protein-binding microarrays: a tool to detect cis-acting elements near promoter regions in rice”
The list shows a part of the results.

The chains behind the UniProt entries cited, without tags or fusion partners.
UniProt Q0JBA9, entry or part of it: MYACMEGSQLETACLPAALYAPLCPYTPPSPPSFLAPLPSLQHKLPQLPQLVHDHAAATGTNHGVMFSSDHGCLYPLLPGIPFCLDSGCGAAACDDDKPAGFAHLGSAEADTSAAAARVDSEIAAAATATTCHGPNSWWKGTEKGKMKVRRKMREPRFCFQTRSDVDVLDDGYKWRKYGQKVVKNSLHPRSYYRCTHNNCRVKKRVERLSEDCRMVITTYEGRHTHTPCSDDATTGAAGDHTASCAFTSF

Each sequence was assayed against OsWRKY34 (Oryza sativa, UniProt Q0JBA9 1-250) (assay: protein-binding microarray (RPBM); PBS, 2% BSA, 51.3 ng/ul salmon testes DNA, 50 uM zinc acetate, 200 nM TF, 25 C, 1 h; high values mean tight binding). Details: protein: recombinant; tags: N-terminal polyhistidine and DsRed monomer fusion (pET32a); label: CyDye5-dUTP incorporated in the synthesized complementary strand; 3' TTTTT single-stranded linker to array surface; dsDNA, one strand shown.
Summary of the method: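 Transcription factors were each fused at the N-terminus to a polyhistidine tag plus DsRed and expressed in E. coli BL21-CodonPlus before Ni–NTA purification. Binding to a double-stranded custom Agilent array was carried out with 200 nM protein at 25 °C for 1 h in PBS, 2% BSA, salmon testes DNA and 50 µM zinc acetate. The binding signal is per-feature fluorescence intensity, in arbitrary units, on an Axon 4000B scanner.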

Sequence | binding signal
CGCCGGCCTCCCACACCATTGGTGCTATTGCGGCCGCCCCCGGAGTCACCTAGTGCAG | 8300 fluorescence intensity (a.u.)
GTCCGGTCCACTCGCCAGTCGCCACCACGAATTCCACCCCCGGAGTCACCTAGTGCAG | 11900 fluorescence intensity (a.u.)
AGCGCTCGTGCATGGATGGTTTGGTTGCATGTTTTTTCACCGGAGTCACCTAGTGCAG | 10500 fluorescence intensity (a.u.)
GTTCGTATGGTCACACGGTGTGCGTATATATGTCTCCTATCGGAGTCACCTAGTGCAG | 8290 fluorescence intensity (a.u.)
CACCGTTGACTTTTTCTCACATGTTTGACCATTCGTCTTACGGAGTCACCTAGTGCAG | 48400 fluorescence intensity (a.u.)
TTACCTCTGAAACTACTAGTAGAATTCTACCTTCTCTGAACGGAGTCACCTAGTGCAG | 8420 fluorescence intensity (a.u.)
GCCAACTTTGTAATTACCCCGATTCAATTCATTCAATTCACGGAGTCACCTAGTGCAG | 10700 fluorescence intensity (a.u.)
ACTATTTCACGTCTTGTATTTTTCCTATCCTCGAATCAAACGGAGTCACCTAGTGCAG | 12500 fluorescence intensity (a.u.)
ACCTTCGGTGCACTTTTTCCTATTGCTAATTAGCCCGTTACGGAGTCACCTAGTGCAG | 9020 fluorescence intensity (a.u.)
TGACACTGTCTCCAAAACACAACTTTGACTTCTTGTTTCTCGGAGTCACCTAGTGCAG | 10400 fluorescence intensity (a.u.)
CCCAGTACATAATACCTCCACGGTACTCGTACTCGTACTCCGGAGTCACCTAGTGCAG | 9750 fluorescence intensity (a.u.)
CTCGCTAGCCCTCTGAACCTTGCAGTTTGTTGTTTGCACCCGGAGTCACCTAGTGCAG | 13600 fluorescence intensity (a.u.)
GGAATTGGCCACAAAAGCTACTGCTAACTACATTCACCTCCGGAGTCACCTAGTGCAG | 9760 fluorescence intensity (a.u.)
ACTTTGCCAATTTGCCAGCTACCGGTCACCTTTGTCTTCTCGGAGTCACCTAGTGCAG | 12000 fluorescence intensity (a.u.)
CATTCGGCGGGGCGGAGGTGGGGCGCGCTCGCCGGAGATGCGGAGTCACCTAGTGCAG | 8310 fluorescence intensity (a.u.)
GAGATCTGCTGCATCGGTGGTAGCAGTGCCACCTTTTTCTCGGAGTCACCTAGTGCAG | 9640 fluorescence intensity (a.u.)
CTTTCATCCCCGCCGCCGGTCGCCGCTTGTGCTGCCGCTCCGGAGTCACCTAGTGCAG | 9830 fluorescence intensity (a.u.)
CAAGTGGTTAGGAGGGGTGTACTGAACTGAGAACTGTCCCCGGAGTCACCTAGTGCAG | 8040 fluorescence intensity (a.u.)
GTATCACCTCTCATGCATTTTTCTGGACATATTACAATATCGGAGTCACCTAGTGCAG | 10500 fluorescence intensity (a.u.)
TCCGTCGCTGTTTCTGTTTGGGTTTAACCGTTTGGTAGCTCGGAGTCACCTAGTGCAG | 9660 fluorescence intensity (a.u.)
GCCTTCGTCGCCGCTCCAACTTCTTCGACATTAACTACAACGGAGTCACCTAGTGCAG | 13100 fluorescence intensity (a.u.)
ACCAAGCTGCAGATTCTCAACCTCGCCTACAACCAGCTGTCGGAGTCACCTAGTGCAG | 8360 fluorescence intensity (a.u.)
CCTCGAAAGCGGTAGGGTCAATATATTTTCATCGGTACAACGGAGTCACCTAGTGCAG | 8910 fluorescence intensity (a.u.)
TGTCTCCAATTTTGTGGCGGCTACGATACACCGCTTGTTTCGGAGTCACCTAGTGCAG | 9530 fluorescence intensity (a.u.)
GTCAACCAAATCTACCGGCTGATCAGTGATCACACGCTTTCGGAGTCACCTAGTGCAG | 8460 fluorescence intensity (a.u.)
GGTACTACTATATCTTCTGTCGCTTTCTCGAATAGGAAATCGGAGTCACCTAGTGCAG | 9520 fluorescence intensity (a.u.)
TGCACTTCCATTTCACCTCACCTCCTCTCCATCTCTCCATCGGAGTCACCTAGTGCAG | 9120 fluorescence intensity (a.u.)

Sequence | binding signal
ATTAGGTTTGATACCTGACCTGTATGATGCGTTTCTACCACGGAGTCACCTAGTGCAG | 10500 fluorescence intensity (a.u.)
TTTTATTCTACTTATTACTCCATATACTAGCTAGCATCATCGGAGTCACCTAGTGCAG | 8080 fluorescence intensity (a.u.)
AGTTTGTAATCAAATCAATTGTTCCATTTAGTCTTTGATTCGGAGTCACCTAGTGCAG | 8590 fluorescence intensity (a.u.)
GGATTTGTCTTTTTTATTTCTTAATATGTAGCTTATGTTTCGGAGTCACCTAGTGCAG | 10700 fluorescence intensity (a.u.)
TTTGCCGTTTCTCTTTGACCAAGGTCAACCGAACTGCGGTCGGAGTCACCTAGTGCAG | 11000 fluorescence intensity (a.u.)
CACTGTTCGTGCACACTGGCCGTCTTCTTCTTCCTCCAGCCGGAGTCACCTAGTGCAG | 8230 fluorescence intensity (a.u.)
TAACATGTAGGGTCCACCTCGGCTCCACCATTTCTAATAACGGAGTCACCTAGTGCAG | 9290 fluorescence intensity (a.u.)
GAGAGTATTTGGAACACGTCATCACTTCGTCCCTTATTATCGGAGTCACCTAGTGCAG | 10000 fluorescence intensity (a.u.)
ATCCGGCACAGATATCCCCTTTGATGTAGAAATCCTCTTCCGGAGTCACCTAGTGCAG | 8880 fluorescence intensity (a.u.)
CACCTAAGGAATGTACTCCGTACTTATCACTAGACCACTTCGGAGTCACCTAGTGCAG | 9190 fluorescence intensity (a.u.)
TTCTATGGTTGGTTCTTGTGTGTCCCTAAGCGTGAAAAAACGGAGTCACCTAGTGCAG | 10200 fluorescence intensity (a.u.)
TCCCTGTTTTTTTGCTGATTTATTTTTTATAGGTTCAATTCGGAGTCACCTAGTGCAG | 8420 fluorescence intensity (a.u.)
TGGGGTGGAGGCAGGGTTCCTCTTGACGAACTGGCCAGCACGGAGTCACCTAGTGCAG | 8580 fluorescence intensity (a.u.)
GGGGCTTCATGACTAGTCTAACCAATTGCAGCAATATGATCGGAGTCACCTAGTGCAG | 8630 fluorescence intensity (a.u.)
AGTCTATCTCTCTCATCCGATTCGTGTATTTTTTCTGCGCCGGAGTCACCTAGTGCAG | 12200 fluorescence intensity (a.u.)
ACCCAATGGCAATCTTGCAAGAACTAACCTTTGCCACCACCGGAGTCACCTAGTGCAG | 8200 fluorescence intensity (a.u.)
TATACTACTAGCAGCAGCGTCTTCCTCCTCGTCGTCTTCACGGAGTCACCTAGTGCAG | 8600 fluorescence intensity (a.u.)
CTGTTGCACGTGCTTTGTTCACCGAAGGTTCCAGCTACTCCGGAGTCACCTAGTGCAG | 8990 fluorescence intensity (a.u.)
GTGTCAAGGTCTACCGCTAGCGATTGTATTTATGGGAAGCCGGAGTCACCTAGTGCAG | 8380 fluorescence intensity (a.u.)
TTTACTGACCTACAAAACCATATGGTTAAAACATCACTTCCGGAGTCACCTAGTGCAG | 8880 fluorescence intensity (a.u.)
ACCTCGAATGAAATATTTTCTTTTTGTGATTTTTGTCGGTCGGAGTCACCTAGTGCAG | 9330 fluorescence intensity (a.u.)
CCCGCCGCCGAATCATCGCCGTCGTTCCTCTGCCTCGTGGCGGAGTCACCTAGTGCAG | 9420 fluorescence intensity (a.u.)
ACCTGTCAGCGCCCACAACTGCTCGCTCCGTCCTCCAAAGCGGAGTCACCTAGTGCAG | 12400 fluorescence intensity (a.u.)
AAATTCTTTGCTTTGTTGTTTTCTCAACATCTTATTGCTTCGGAGTCACCTAGTGCAG | 9090 fluorescence intensity (a.u.)
AACATCGCACAGTCAGTCACACACCCACACACCGGCGAGCCGGAGTCACCTAGTGCAG | 9250 fluorescence intensity (a.u.)
ACATTTCCAGTTTCCACATTCGTCCTTCCGCTTACGCCGACGGAGTCACCTAGTGCAG | 9330 fluorescence intensity (a.u.)
CCCTAACTACGGCGAACCCAGCACACGGGATTGTTACCTTCGGAGTCACCTAGTGCAG | 8210 fluorescence intensity (a.u.)
